# Laboratory results published in the supplement of paper PMC10849652.
# By UniProt entry, the sequences of proteins in these tests, tags left out. Where a name states a change or a piece, a line headed by the entry shows the natural chain unless it says otherwise.
# UniProt Q9BRX8: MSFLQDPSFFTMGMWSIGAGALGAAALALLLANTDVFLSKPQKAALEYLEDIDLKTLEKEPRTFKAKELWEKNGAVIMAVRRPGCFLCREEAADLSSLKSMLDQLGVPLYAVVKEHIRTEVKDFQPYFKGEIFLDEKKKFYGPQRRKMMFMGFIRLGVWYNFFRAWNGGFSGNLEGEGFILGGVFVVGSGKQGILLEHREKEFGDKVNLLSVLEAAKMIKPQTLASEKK
# UniProt A2A3K4: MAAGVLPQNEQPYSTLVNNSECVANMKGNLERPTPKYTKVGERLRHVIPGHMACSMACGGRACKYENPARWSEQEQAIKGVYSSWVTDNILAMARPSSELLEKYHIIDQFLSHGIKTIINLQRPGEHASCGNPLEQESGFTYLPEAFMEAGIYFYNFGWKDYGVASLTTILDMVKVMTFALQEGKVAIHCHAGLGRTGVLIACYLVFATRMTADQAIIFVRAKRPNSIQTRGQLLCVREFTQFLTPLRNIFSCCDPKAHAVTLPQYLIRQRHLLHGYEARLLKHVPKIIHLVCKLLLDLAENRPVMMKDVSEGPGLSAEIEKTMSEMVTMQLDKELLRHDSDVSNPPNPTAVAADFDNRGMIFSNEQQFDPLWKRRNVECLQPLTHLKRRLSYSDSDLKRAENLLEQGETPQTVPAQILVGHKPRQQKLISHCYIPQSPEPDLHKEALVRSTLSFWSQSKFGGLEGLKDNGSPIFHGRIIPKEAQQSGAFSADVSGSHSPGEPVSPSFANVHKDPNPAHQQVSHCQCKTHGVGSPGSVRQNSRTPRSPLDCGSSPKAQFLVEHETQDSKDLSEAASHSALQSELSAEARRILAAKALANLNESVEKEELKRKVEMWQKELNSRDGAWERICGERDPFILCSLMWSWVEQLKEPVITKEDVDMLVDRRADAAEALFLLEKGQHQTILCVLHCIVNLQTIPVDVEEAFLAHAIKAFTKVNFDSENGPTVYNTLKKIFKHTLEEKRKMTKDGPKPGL
# UniProt Q5THK1: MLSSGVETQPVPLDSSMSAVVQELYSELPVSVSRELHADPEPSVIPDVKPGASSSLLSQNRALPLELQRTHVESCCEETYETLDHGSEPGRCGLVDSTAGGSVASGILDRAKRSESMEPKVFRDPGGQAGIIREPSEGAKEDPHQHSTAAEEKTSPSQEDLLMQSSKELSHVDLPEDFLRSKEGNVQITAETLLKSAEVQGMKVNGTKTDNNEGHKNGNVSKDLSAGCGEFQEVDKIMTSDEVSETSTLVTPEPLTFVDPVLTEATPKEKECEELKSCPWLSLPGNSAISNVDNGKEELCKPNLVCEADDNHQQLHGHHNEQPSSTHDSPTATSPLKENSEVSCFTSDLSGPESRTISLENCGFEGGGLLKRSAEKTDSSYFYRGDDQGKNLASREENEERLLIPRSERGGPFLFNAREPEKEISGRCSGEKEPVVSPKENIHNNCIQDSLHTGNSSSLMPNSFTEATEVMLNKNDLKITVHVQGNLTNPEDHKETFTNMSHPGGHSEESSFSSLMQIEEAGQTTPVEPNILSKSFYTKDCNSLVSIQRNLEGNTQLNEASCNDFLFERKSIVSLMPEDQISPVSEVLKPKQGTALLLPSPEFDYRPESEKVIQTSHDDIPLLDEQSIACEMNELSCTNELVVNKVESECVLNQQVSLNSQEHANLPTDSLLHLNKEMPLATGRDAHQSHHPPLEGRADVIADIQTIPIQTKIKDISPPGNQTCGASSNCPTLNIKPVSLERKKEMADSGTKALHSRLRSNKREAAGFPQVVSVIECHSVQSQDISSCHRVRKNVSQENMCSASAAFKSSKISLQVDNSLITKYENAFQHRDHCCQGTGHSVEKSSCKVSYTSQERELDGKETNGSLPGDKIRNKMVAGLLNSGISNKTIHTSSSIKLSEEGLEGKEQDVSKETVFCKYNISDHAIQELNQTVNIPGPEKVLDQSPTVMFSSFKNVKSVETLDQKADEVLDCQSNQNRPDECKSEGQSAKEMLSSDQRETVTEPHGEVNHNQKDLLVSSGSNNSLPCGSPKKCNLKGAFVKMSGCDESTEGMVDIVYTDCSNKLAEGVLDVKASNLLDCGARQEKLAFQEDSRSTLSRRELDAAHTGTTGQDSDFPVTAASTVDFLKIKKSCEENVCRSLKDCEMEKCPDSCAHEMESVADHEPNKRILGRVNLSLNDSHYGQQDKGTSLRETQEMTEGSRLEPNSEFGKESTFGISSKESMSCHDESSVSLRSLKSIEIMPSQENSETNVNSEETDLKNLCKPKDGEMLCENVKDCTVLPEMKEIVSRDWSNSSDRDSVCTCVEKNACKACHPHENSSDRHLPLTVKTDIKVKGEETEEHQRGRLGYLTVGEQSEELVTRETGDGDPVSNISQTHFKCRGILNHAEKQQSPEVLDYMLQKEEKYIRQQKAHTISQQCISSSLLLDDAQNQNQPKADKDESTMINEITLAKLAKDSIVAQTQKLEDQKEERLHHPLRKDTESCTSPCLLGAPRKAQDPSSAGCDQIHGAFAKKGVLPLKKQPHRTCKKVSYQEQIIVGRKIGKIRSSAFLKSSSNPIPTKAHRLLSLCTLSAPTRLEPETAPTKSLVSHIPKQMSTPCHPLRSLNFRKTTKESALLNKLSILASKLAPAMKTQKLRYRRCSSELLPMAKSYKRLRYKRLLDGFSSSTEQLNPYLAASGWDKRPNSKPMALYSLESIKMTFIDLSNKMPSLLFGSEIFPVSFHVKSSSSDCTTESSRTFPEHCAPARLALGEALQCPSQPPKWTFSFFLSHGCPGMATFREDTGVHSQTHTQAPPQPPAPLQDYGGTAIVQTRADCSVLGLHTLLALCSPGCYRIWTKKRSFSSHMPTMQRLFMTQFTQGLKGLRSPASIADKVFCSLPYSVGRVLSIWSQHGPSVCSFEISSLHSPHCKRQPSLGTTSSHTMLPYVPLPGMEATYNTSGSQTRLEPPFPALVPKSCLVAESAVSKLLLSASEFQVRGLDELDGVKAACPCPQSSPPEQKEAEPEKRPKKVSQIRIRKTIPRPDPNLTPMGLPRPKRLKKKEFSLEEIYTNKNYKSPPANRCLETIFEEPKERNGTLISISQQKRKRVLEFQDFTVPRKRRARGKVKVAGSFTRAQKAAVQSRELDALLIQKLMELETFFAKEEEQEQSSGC
# UniProt Q15185: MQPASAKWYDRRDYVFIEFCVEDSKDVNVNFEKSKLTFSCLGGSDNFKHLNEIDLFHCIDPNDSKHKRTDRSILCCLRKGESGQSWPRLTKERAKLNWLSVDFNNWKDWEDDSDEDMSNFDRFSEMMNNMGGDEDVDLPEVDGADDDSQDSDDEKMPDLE
# UniProt O75365, whole entry, looked up: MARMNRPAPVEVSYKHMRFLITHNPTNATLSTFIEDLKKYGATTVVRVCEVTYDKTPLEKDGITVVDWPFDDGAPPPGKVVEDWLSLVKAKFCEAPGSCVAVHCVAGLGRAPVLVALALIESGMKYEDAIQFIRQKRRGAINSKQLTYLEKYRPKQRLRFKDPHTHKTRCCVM
# UniProt Q16378: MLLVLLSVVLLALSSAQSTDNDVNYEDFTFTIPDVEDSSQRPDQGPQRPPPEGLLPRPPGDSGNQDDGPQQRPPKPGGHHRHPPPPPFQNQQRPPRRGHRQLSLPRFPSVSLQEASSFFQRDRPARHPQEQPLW
# UniProt Q8WV60: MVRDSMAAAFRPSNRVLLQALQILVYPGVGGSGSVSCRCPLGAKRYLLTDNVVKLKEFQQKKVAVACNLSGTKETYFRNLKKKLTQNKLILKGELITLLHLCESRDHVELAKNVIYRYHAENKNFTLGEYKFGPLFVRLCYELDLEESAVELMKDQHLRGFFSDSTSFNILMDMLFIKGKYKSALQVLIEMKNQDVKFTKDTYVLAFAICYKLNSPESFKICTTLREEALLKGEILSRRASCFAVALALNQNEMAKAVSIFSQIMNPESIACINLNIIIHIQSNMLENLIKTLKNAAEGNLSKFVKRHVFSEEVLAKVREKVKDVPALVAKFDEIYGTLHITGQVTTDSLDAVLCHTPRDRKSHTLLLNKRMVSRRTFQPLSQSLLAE
# UniProt Q6NUJ5: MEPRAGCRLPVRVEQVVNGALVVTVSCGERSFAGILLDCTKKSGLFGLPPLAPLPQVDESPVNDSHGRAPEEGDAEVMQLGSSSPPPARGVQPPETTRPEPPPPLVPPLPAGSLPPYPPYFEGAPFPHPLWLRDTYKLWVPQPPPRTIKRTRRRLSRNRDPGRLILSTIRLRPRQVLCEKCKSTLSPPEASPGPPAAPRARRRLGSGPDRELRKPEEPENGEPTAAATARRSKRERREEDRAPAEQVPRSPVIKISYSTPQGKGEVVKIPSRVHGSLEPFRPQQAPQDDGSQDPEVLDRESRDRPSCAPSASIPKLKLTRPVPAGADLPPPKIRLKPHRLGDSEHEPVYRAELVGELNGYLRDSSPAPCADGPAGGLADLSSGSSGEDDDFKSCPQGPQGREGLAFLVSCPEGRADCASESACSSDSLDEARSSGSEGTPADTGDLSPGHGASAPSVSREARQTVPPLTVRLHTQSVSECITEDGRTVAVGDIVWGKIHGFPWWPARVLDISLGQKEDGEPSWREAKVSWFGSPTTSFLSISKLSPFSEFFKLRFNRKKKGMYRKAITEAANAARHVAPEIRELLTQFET
# UniProt P79522: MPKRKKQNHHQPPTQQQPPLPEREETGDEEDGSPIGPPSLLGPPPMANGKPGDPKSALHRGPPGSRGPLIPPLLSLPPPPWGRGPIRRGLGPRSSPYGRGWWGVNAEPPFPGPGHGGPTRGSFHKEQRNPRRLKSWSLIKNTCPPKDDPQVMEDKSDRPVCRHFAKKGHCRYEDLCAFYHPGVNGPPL
# UniProt P07478, whole entry, looked up: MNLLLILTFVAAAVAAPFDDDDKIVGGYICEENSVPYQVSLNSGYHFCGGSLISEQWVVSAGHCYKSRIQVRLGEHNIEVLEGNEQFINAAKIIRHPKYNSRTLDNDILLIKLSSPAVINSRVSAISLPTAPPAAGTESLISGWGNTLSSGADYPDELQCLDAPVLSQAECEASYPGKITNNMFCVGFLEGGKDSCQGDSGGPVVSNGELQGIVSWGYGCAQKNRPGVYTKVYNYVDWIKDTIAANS
# UniProt P43115: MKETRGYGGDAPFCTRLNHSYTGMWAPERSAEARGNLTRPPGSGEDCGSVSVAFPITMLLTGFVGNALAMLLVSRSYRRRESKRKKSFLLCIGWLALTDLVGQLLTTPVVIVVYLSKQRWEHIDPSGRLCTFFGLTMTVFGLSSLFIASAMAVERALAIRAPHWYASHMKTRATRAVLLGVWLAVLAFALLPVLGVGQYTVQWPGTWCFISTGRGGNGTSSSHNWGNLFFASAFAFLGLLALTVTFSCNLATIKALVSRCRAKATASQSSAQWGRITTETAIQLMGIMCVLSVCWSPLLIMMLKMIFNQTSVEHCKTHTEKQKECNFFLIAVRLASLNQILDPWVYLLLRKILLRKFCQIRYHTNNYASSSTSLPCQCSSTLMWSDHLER
# Some of the results follow.
# Compound: C=CC(=O)N1CCC[C@@H](n2nc(-c3ccc(Oc4ccccc4)cc3)c3c(N)ncnc32)C1 [ibrutinib]
# Test: log2 fold change, soluble protein after heating vs DMSO (PISA); higher = thermal stabilisation; K562 lysate, 10 uM; active = over 0.2 and 3.5 SD of the protein, either way, in both replicates (recomputed)
# Method in brief: (§1)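 Pellets of K562 cells were dounce-homogenised in PBS pH 7.4 with 1 mM MgCl2, and the crude extract was held at 1 mg/mL protein for a 30 min treatment with 10 μM compound. Aliquots were heated for 3 min over 48°C-58°C and pooled before NP-40 was added to 0.5% at 4°C. The supernatant from 21,000xg for 90 min was quantified by TMTpro 16plex LC-MS/MS with channel sums equalised. Values are reported from duplicates as log-two fold change in thermal stability relative to solvent controls.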
row,Target,log2 fold change
1,PSMD4 (UniProt Q5VWC4),inactive: 0.045
2,PSIP1 (UniProt V9GYT7),inactive: 0.055
3,PRR12 (UniProt Q9ULL5),inactive: 0.005
4,PSEN2 (UniProt P49810),inactive: -0.018
5,PRXL2A (UniProt Q9BRX8),inactive: -0.065
6,PTPDC1 isoform 2 (UniProt A2A3K4),inactive: -0.01
7,PRR14L (UniProt Q5THK1),inactive: 0.028
8,PTGES3 isoform 4 (UniProt Q15185),inactive: 0.118
9,"PSMB2, A0A087WVV1",inactive: 0.043

# Compound: CC(=O)c1cnc2ccc(-c3cc(Cl)c(O)c(Cl)c3)nc2c1N[C@H]1CC[C@H](CN(C)C)CC1
# Test: as above
# Method in brief: as §1
row,Target,log2 fold change
1,PTP4A3 (UniProt O75365),inactive: 0.018
2,"PTPN11, A0A0U1RRI0",inactive: -0.041
3,PRR4 (UniProt Q16378),inactive: -0.009
4,PSMC5 (UniProt J3KRP2),inactive: -0.018
5,PTCD2 (UniProt Q8WV60),inactive: 0.136
6,PSME3 (UniProt K7EMD0),inactive: 0
7,PWWP2B (UniProt Q6NUJ5),inactive: -0.05
8,"PTBP1, A0A0U1RRM4",inactive: 0.19
9,PTPA (UniProt Q5T948),inactive: 0.028
10,PRR3 (UniProt P79522),inactive: 0.146
11,PTPA (UniProt Q5T949),inactive: 0.09
12,PRSS2 (UniProt P07478),inactive: 0.157
13,PSMA3 (UniProt H0YJ03),inactive: -0.058
14,PTGER3 isoform 2 (UniProt P43115),inactive: -0.026

# Reprinted from the results shown (6 entries):
row,Target,log2 fold change
2,"PTPN11, A0A0U1RRI0",inactive: -0.041
3,PRR4 (UniProt Q16378),inactive: -0.009
4,PSMC5 (UniProt J3KRP2),inactive: -0.018
5,PTCD2 (UniProt Q8WV60),inactive: 0.136
6,PSME3 (UniProt K7EMD0),inactive: 0
7,PWWP2B (UniProt Q6NUJ5),inactive: -0.05
